Laboratory results: the supplement of paper PMC4604168 (melanoma cell lines)
The other results are listed elsewhere or left out. Single values are uncertain, as repeats are few or missing.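 The apoptosis fraction was the count of cleaved-PARP antibody-stained nuclei relative to all DNA-stained nuclei, imaged in 1,536-well plates. Screening doses were set so most cells survived, and baseline and induced cleaved-PARP levels vary greatly across cell lines.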

Legend:
Assay in all cases: cleaved PARP positive nuclei fraction relative to DMSO control; melanoma cells; higher = more apoptosis
Conditions in all cases: library dose: low library concentration; 72 h
501Mel = test system: 501Mel
A101D = test system: A101D
A2058 = test system: A2058
A375 = test system: A375
C32 = test system: C32
CBRC008 = test system: CBRC008 (line from a melanoma biopsy)
CBRC013 = test system: CBRC013 (line from a melanoma biopsy)
CBRC014 = test system: CBRC014 (line from a melanoma biopsy)
CBRC016 = test system: CBRC016 (line from a melanoma biopsy)
CBRC017 = test system: CBRC017 (line from a melanoma biopsy)
COLO792 = test system: COLO792
COLO800 = test system: COLO800
COLO829 = test system: COLO829
G361 = test system: G361
IPC-298 = test system: IPC-298
IST-MEL1 = test system: IST-MEL1
LB2518-MEL = test system: LB2518-MEL
LOXIMVI = test system: LOXIMVI
MEL-HO = test system: MEL-HO
CBRC034 = test system: CBRC034 (line from a melanoma biopsy)

Nc1ccn([C@@H]2O[C@H](CO)[C@@H](O)C2(F)F)c(=O)n1 [gemcitabine] + O=C(Nc1cccc(Cl)c1)Nc1ncc(CCNc2ncnc3ccsc23)s1 [SNS314] (first compound 0.0004 µM, partner dose 0.0008 µM)
cleaved PARP positive nuclei fraction (501Mel): 101% | cleaved PARP positive nuclei fraction (A101D): 40.5% | cleaved PARP positive nuclei fraction (A2058): 120% | cleaved PARP positive nuclei fraction (A375): 97.9% | cleaved PARP positive nuclei fraction (C32): 92.2% | cleaved PARP positive nuclei fraction (CBRC008): 86.5% | cleaved PARP positive nuclei fraction (CBRC013): 122% | cleaved PARP positive nuclei fraction (CBRC014): 147% | cleaved PARP positive nuclei fraction (CBRC016): 169% | cleaved PARP positive nuclei fraction (CBRC017): 99.2% | cleaved PARP positive nuclei fraction (COLO792): 28.2% | cleaved PARP positive nuclei fraction (COLO800): 73.9% | cleaved PARP positive nuclei fraction (COLO829): 83% | cleaved PARP positive nuclei fraction (G361): 94.3% | cleaved PARP positive nuclei fraction (IPC-298): 195% | cleaved PARP positive nuclei fraction (IST-MEL1): 93.6% | cleaved PARP positive nuclei fraction (LB2518-MEL): 85.8% | cleaved PARP positive nuclei fraction (LOXIMVI): 182% | cleaved PARP positive nuclei fraction (MEL-HO): 70.1%

CO[C@H]1C[C@@H]2CC[C@@H](C)[C@@](O)(O2)C(=O)C(=O)N2CCCC[C@H]2C(=O)O[C@H]([C@H](C)C[C@@H]2CC[C@@H](OCCO)[C@H](OC)C2)CC(=O)[C@H](C)/C=C(\C)[C@@H](O)[C@@H](OC)C(=O)[C@H](C)C[C@H](C)/C=C/C=C/C=C/1C [everolimus] + C[C@@H]1CCN(C(=O)CC#N)C[C@@H]1N(C)c1ncnc2[nH]ccc12 [CP690550] (first compound 0.02 µM, partner dose 1 µM)
cleaved PARP positive nuclei fraction (501Mel): 749% | cleaved PARP positive nuclei fraction (A101D): 46.7% | cleaved PARP positive nuclei fraction (A2058): 122% | cleaved PARP positive nuclei fraction (A375): 726% | cleaved PARP positive nuclei fraction (C32): 104% | cleaved PARP positive nuclei fraction (CBRC008): 117% | cleaved PARP positive nuclei fraction (CBRC013): 105% | cleaved PARP positive nuclei fraction (CBRC014): 75% | cleaved PARP positive nuclei fraction (CBRC016): 103% | cleaved PARP positive nuclei fraction (CBRC017): 68.6% | cleaved PARP positive nuclei fraction (COLO792): 223% | cleaved PARP positive nuclei fraction (COLO800): 54.2% | cleaved PARP positive nuclei fraction (COLO829): 66.5% | cleaved PARP positive nuclei fraction (G361): 87.8% | cleaved PARP positive nuclei fraction (IPC-298): 109% | cleaved PARP positive nuclei fraction (IST-MEL1): 107% | cleaved PARP positive nuclei fraction (LB2518-MEL): 164% | cleaved PARP positive nuclei fraction (LOXIMVI): 70.3% | cleaved PARP positive nuclei fraction (MEL-HO): 86.2%

O=C(O)c1ccc2c(c1)nc(Nc1cccc(Cl)c1)c1ccncc12 + Clc1ccc(Nc2nnc(Cc3ccncc3)c3ccccc23)cc1 [vatalanib] (first compound 0.4 µM, partner dose 2 µM)
cleaved PARP positive nuclei fraction (501Mel): 98.3% | cleaved PARP positive nuclei fraction (A101D): 41.4% | cleaved PARP positive nuclei fraction (A2058): 185% | cleaved PARP positive nuclei fraction (A375): 164% | cleaved PARP positive nuclei fraction (C32): 77.1% | cleaved PARP positive nuclei fraction (CBRC008): 147% | cleaved PARP positive nuclei fraction (CBRC014): 128% | cleaved PARP positive nuclei fraction (CBRC016): 100% | cleaved PARP positive nuclei fraction (CBRC017): 150% | cleaved PARP positive nuclei fraction (CBRC034): 155% | cleaved PARP positive nuclei fraction (COLO792): 182% | cleaved PARP positive nuclei fraction (COLO800): 57.2% | cleaved PARP positive nuclei fraction (COLO829): 251% | cleaved PARP positive nuclei fraction (G361): 18.2% | cleaved PARP positive nuclei fraction (IPC-298): 133% | cleaved PARP positive nuclei fraction (IST-MEL1): 94.4% | cleaved PARP positive nuclei fraction (LB2518-MEL): 97.6% | cleaved PARP positive nuclei fraction (LOXIMVI): 156% | cleaved PARP positive nuclei fraction (MEL-HO): 94%

CS(=O)(=O)CCNCc1ccc(-c2ccc3ncnc(Nc4ccc(OCc5cccc(F)c5)c(Cl)c4)c3c2)o1 [lapatinib] + Cn1nnc2c(C(N)=O)ncn2c1=O [temozolomide] (first compound 0.8 µM, partner dose 2 µM)
cleaved PARP positive nuclei fraction (501Mel): 72.7% | cleaved PARP positive nuclei fraction (A101D): 30% | cleaved PARP positive nuclei fraction (A2058): 53.2% | cleaved PARP positive nuclei fraction (A375): 83.5% | cleaved PARP positive nuclei fraction (C32): 324% | cleaved PARP positive nuclei fraction (CBRC008): 73.7% | cleaved PARP positive nuclei fraction (CBRC014): 101% | cleaved PARP positive nuclei fraction (CBRC016): 98.4% | cleaved PARP positive nuclei fraction (CBRC017): 80.1% | cleaved PARP positive nuclei fraction (CBRC034): 63.8% | cleaved PARP positive nuclei fraction (COLO792): 80.2% | cleaved PARP positive nuclei fraction (COLO800): 111% | cleaved PARP positive nuclei fraction (COLO829): 169% | cleaved PARP positive nuclei fraction (G361): 71.1% | cleaved PARP positive nuclei fraction (IPC-298): 84.3% | cleaved PARP positive nuclei fraction (IST-MEL1): 137% | cleaved PARP positive nuclei fraction (LB2518-MEL): 190% | cleaved PARP positive nuclei fraction (LOXIMVI): 30.6% | cleaved PARP positive nuclei fraction (MEL-HO): 131%

Cn1c(=O)n(-c2ccc(C(C)(C)C#N)cc2)c2c3cc(-c4cnc5ccccc5c4)ccc3ncc21 + CO[C@H]1C[C@@H]2CC[C@@H](C)[C@@](O)(O2)C(=O)C(=O)N2CCCC[C@H]2C(=O)O[C@H]([C@H](C)C[C@@H]2CC[C@@H](OCCO)[C@H](OC)C2)CC(=O)[C@H](C)/C=C(\C)[C@@H](O)[C@@H](OC)C(=O)[C@H](C)C[C@H](C)/C=C/C=C/C=C/1C [everolimus] (first compound 0.004 µM, partner dose 0.02 µM)
cleaved PARP positive nuclei fraction (501Mel): 309% | cleaved PARP positive nuclei fraction (A101D): 142% | cleaved PARP positive nuclei fraction (A2058): 551% | cleaved PARP positive nuclei fraction (A375): 2890% | cleaved PARP positive nuclei fraction (C32): 310% | cleaved PARP positive nuclei fraction (CBRC008): 294% | cleaved PARP positive nuclei fraction (CBRC014): 90.5% | cleaved PARP positive nuclei fraction (CBRC016): 99.9% | cleaved PARP positive nuclei fraction (CBRC017): 190% | cleaved PARP positive nuclei fraction (CBRC034): 106% | cleaved PARP positive nuclei fraction (COLO792): 198% | cleaved PARP positive nuclei fraction (COLO800): 122% | cleaved PARP positive nuclei fraction (COLO829): 143% | cleaved PARP positive nuclei fraction (G361): 219% | cleaved PARP positive nuclei fraction (IPC-298): 171% | cleaved PARP positive nuclei fraction (IST-MEL1): 159% | cleaved PARP positive nuclei fraction (LB2518-MEL): 167% | cleaved PARP positive nuclei fraction (LOXIMVI): 85.5% | cleaved PARP positive nuclei fraction (MEL-HO): 108%

Nc1nc(F)nc2c1ncn2[C@@H]1O[C@H](CO)[C@@H](O)[C@@H]1O [fludarabine] + Clc1ccc(Nc2nnc(Cc3ccncc3)c3ccccc23)cc1 [vatalanib] (first compound 0.2 µM, partner dose 2 µM)
cleaved PARP positive nuclei fraction (501Mel): 19600% | cleaved PARP positive nuclei fraction (A101D): 199% | cleaved PARP positive nuclei fraction (A2058): 77.8% | cleaved PARP positive nuclei fraction (A375): 1450% | cleaved PARP positive nuclei fraction (C32): 81.7% | cleaved PARP positive nuclei fraction (CBRC008): 165% | cleaved PARP positive nuclei fraction (CBRC014): 107% | cleaved PARP positive nuclei fraction (CBRC016): 217% | cleaved PARP positive nuclei fraction (CBRC017): 118% | cleaved PARP positive nuclei fraction (CBRC034): 63.5% | cleaved PARP positive nuclei fraction (COLO792): 80.8% | cleaved PARP positive nuclei fraction (COLO800): 103% | cleaved PARP positive nuclei fraction (COLO829): 160% | cleaved PARP positive nuclei fraction (G361): 86.9% | cleaved PARP positive nuclei fraction (IPC-298): 104% | cleaved PARP positive nuclei fraction (IST-MEL1): 639% | cleaved PARP positive nuclei fraction (LB2518-MEL): 117% | cleaved PARP positive nuclei fraction (LOXIMVI): 212% | cleaved PARP positive nuclei fraction (MEL-HO): 77.6%

CC(C)C[C@H](NC(=O)[C@H](Cc1ccccc1)NC(=O)c1cnccn1)B(O)O [Bortezomib] + CS(=O)(=O)CCNCc1ccc(-c2ccc3ncnc(Nc4ccc(OCc5cccc(F)c5)c(Cl)c4)c3c2)o1 [lapatinib] (first compound 0.001 µM, partner dose 0.8 µM)
cleaved PARP positive nuclei fraction (501Mel): 205% | cleaved PARP positive nuclei fraction (A101D): 1040% | cleaved PARP positive nuclei fraction (A2058): 143% | cleaved PARP positive nuclei fraction (A375): 74.1% | cleaved PARP positive nuclei fraction (C32): 77.1% | cleaved PARP positive nuclei fraction (CBRC008): 213% | cleaved PARP positive nuclei fraction (CBRC014): 202% | cleaved PARP positive nuclei fraction (CBRC016): 666% | cleaved PARP positive nuclei fraction (CBRC017): 263% | cleaved PARP positive nuclei fraction (CBRC034): 91.7% | cleaved PARP positive nuclei fraction (COLO792): 38.9% | cleaved PARP positive nuclei fraction (COLO800): 70.3% | cleaved PARP positive nuclei fraction (COLO829): 196% | cleaved PARP positive nuclei fraction (G361): 4040% | cleaved PARP positive nuclei fraction (IPC-298): 231% | cleaved PARP positive nuclei fraction (IST-MEL1): 91.9% | cleaved PARP positive nuclei fraction (LB2518-MEL): 107% | cleaved PARP positive nuclei fraction (LOXIMVI): 236% | cleaved PARP positive nuclei fraction (MEL-HO): 109%

Nc1ncn([C@H]2C[C@H](O)[C@@H](CO)O2)c(=O)n1 [decitabine] + COc1cc2c(Oc3ccc4[nH]c(C)cc4c3F)ncnc2cc1OCCCN1CCCC1 [cediranib] (first compound 0.1 µM, partner dose 0.4 µM)
cleaved PARP positive nuclei fraction (501Mel): 89.5% | cleaved PARP positive nuclei fraction (A101D): 166% | cleaved PARP positive nuclei fraction (A2058): 148% | cleaved PARP positive nuclei fraction (A375): 120% | cleaved PARP positive nuclei fraction (C32): 181% | cleaved PARP positive nuclei fraction (CBRC008): 123% | cleaved PARP positive nuclei fraction (CBRC013): 111% | cleaved PARP positive nuclei fraction (CBRC014): 83.9% | cleaved PARP positive nuclei fraction (CBRC016): 105% | cleaved PARP positive nuclei fraction (CBRC017): 85.7% | cleaved PARP positive nuclei fraction (COLO792): 77.7% | cleaved PARP positive nuclei fraction (COLO800): 41.7% | cleaved PARP positive nuclei fraction (COLO829): 141% | cleaved PARP positive nuclei fraction (G361): 66.7% | cleaved PARP positive nuclei fraction (IPC-298): 72.9% | cleaved PARP positive nuclei fraction (IST-MEL1): 95.9% | cleaved PARP positive nuclei fraction (LB2518-MEL): 50.9% | cleaved PARP positive nuclei fraction (LOXIMVI): 90.7% | cleaved PARP positive nuclei fraction (MEL-HO): 72%
